At least one compound was matched to its structure with a doubt left.
Key:
Format in all cases: in vivo, human
[1] = system: patients with drug dependency; assay: Illustrative case reports: six cases of drug dependency
[2] = system: patient with BD; assay: Illustrative case report: a case of BD; details: 100 mg/day for 7 days then 200 mg/day; week 4; with Lithium
Source text: Married person, a hedge fund investment manager with history of BD who has had temporary partial response to antidepressants but mainly resulting in exacerbation symptoms of anxiety, relapse to a depression or cycling to mania. They were intolerant of atypical antipsychotics with potential antidepressant effect (Ziprasidone, Aripiprazole and Quetiapine) either as mono therapy or combined with Lithium or Lamotrigine. […] They reported oil Lithium their “up and down swings were better” but complained their depression was not resolved and they were not happy. They also complained of lack of motivation, trouble with concentration, getting easily overwhelmed with their job, inability to feel joy, overall lack of interest in everything, not knowing what to do with themself, gave up on all hobbies, feeling being all consumed, excessive day time napping, feeling bored especially when their time would be unstructured on week end, loss of their spontaneity and resorting to procrastination, They went to an exotic vacation in Caribbean with their spouse with the hope to bounce back. But as they reported they were not able to enjoy their vacation, complained feeling “being stuck at the low bottom and strongly believed they would never come out of it”. They had started to do Marijuana with the hope to improve their mood. They were preoccupied with getting a gun and shoots themself. […]

[3] = system: patients with SCZ, BD, Major depression and drug dependency; assay: Clinical studies of entacapone in more than 100 patients, evaluated with the CGI scale
Protocol: This new therapeutic application was determined in patients (Men/women) in single-drug and combination drug therapy. 100 patients were treated at a dose range of 3-10-mg/kg day (50 mg/day-800 mg/day) orally for period of 12 weeks and continued for as long as patients consented averaged 12 months or more.
The drug efficacy was evaluated using the CGI (Clinical Global Impression) scale. This is a simple tool that is clinically understandable, has proven to be a robust measure of efficacy in drug treatment trial and is highly sensitive to change of clinical status.

[4] = system: patients with SCZ; assay: Illustrative case reports: two cases of SCZ
[5] = 100 mg/day increased to 400 mg/day, 3 weeks later

For `CCN(CC)C(=O)/C(C#N)=C/c1cc(O)c(O)c([N+](=O)[O-])c1` [entacapone], the “craving for cocaine or alcohol, Case #2” value ([1]; 100 mg/day for 2 days, 200 mg/day by day 4, with clozapine and aripiprazole) was “no craving for cocaine or alcohol”, the “alcohol craving, Case #4 (Entacapone monotherapy)” value [1, 5] was “free of any craving” and the “depression, Case #4 (Entacapone monotherapy)” value [1, 5] was “all resolved”. For the same compound, the “craving for marijuana, Case #1” value ([1]; 100 mg/day, by day 2, with aripiprazole and bromocriptine) was “ceased completely”, the “opiate craving, Case #6” value ([1]; 200 mg/day added to Buprenorphine, week 8) was “no craving for the opiates” and the “alcohol craving, Case #3 (combination therapy)” value ([1]; 200 mg/day, by day 7, after 7 day in-patient detox) was “their craving stopped”. For the same compound, the “smoking, Case #5 (tobacco dependence)” value ([1]; 400 mg three times a day, after one week of treatment, smoke free 60 days) was “quit completely”, the “Buprenorphine taper, Case #6” value ([1]; 400 mg twice a day, after 2 months) was “managed to go off Buprenorphine” and the “depression and anxiety in BD” value [2] was “no longer depressed or anxious”. The “maintenance of benefit under continued treatment” value ([3]; acute phase 12 weeks, extensions to 12 months or more) was “maintained the benefit”, the “benefit in patients with drug dependency, obesity and depression” value ([3]; clinical trials) was “a vast majority of patients with drug dependency, obesity and depression were benefited” and the “loss of treatment response despite continuation of the treatment” value ([3]; long-term data) was “no patient who lost the treatment response”. For the same compound, the “negative symptoms of SCZ, Case #2” value ([4]; 100 mg/day, by week 2, with Clozapine, Ziprasidone and Lamotrigine) was “felt more emotional energy”, the “positive symptoms of SCZ (hallucinations), Case #1” value ([4]; added to clozapine, 100 mg/day, 200 m/day after 2 days, by day 4, maintained 7 months) was “absolutely free of hallucinations” and the “long-term effect on negative symptoms of SCZ, Case #2” value ([4]; dose adjusted to 400 mg/day, past 8 months) was “continues to maintain the positive effect”.
